From article PMC11108907
Results are given in words; binding and its absence hold for the method and conditions named. Binding seen in cells or lysates may run through a third protein. Some results given as binding are weak or reduced against the parent protein; the word gives no strength.

The chains behind the UniProt entries cited, without tags or fusion partners.
UniProt P63159: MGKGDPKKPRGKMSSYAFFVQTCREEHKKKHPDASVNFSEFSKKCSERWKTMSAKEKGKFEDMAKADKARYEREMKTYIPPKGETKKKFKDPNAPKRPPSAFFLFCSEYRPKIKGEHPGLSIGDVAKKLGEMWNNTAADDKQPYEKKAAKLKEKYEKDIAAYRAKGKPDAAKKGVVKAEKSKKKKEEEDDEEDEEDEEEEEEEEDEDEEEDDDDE

Biological target: high-mobility group box 1 (HMGB1) (rat (endogenous in SD rat brain tissue)) (UniProt P63159)
Assay: co-IP; Whole tissue lysates of rats (Control, SS, SS + LGA and SS + HGA groups) immunoprecipitated with anti-HMGB1, anti-PP2Ac or anti-PKCα antibody overnight at 4 °C, captured on protein A/G agarose beads, then immunoblotted

binding: binds
Substance: protein kinase C alpha (PKCα) (from UniProt P05696 1-672) (enzyme)
